Results from patent US20090023640A1, “Use Of A Cyclic Undecapeptide For The Preparation Of A Medicament For Administration During Myocardial Ischaemic Events” (priority 2005, published 2009).
Part of at least one peptide drawing is inferred or uncertain, most often the ends.

Experiments:
[1] = system: septic shock with myocardial dysfunction; assay: Model of septic shock in the mouse (cecal ligature and puncture), survival; type: in vivo; settings: septicemic mice; 10 mg/kg parenteral injection just after induction of septic shock; 72 hours after induction (FIG. 2); control group 100% mortality in 36 hours
[2] = system: myocardial infarction (ischemia-reperfusion); assay: Model of ischemia-reperfusion in the mouse, post-infarction period (infarction size, ventricular remodeling, survival); type: in vivo

Compound: C/C=C/C[C@@H](C)[C@@H](O)[C@H]1C(=O)N[C@@H](CC)C(=O)N(C)[C@@H](C)C(=O)N(CC)[C@@H](C(C)C)C(=O)N[C@@H](C(C)C)C(=O)N(C)[C@@H](CC(C)C)C(=O)N[C@@H](C)C(=O)N[C@H](C)C(=O)N(C)[C@@H](CC(C)C)C(=O)N(C)[C@@H](CC(C)C)C(=O)N(C)[C@@H](C(C)C)C(=O)N1C [[MeAla]^3-[EtVal]^4-CsA, -MeBmt-αAbu-MeAla-EtVal-Val-MeLeu-Ala-(D)Ala-MeLeu-MeLeu-MeVal-]
- survival rate [1]: approximately 60%
- mortality rate at 4 weeks ([2]; mouse, 10 mg/kg i.v. 3 minutes before ligature release, versus carrier (FIG. 1)): decrease in the mortality rate
- beneficial effects (infarction size, mortality, ejection fraction) when administered too early or too late relative to the reperfusion ([2]; same dose of active compound, administration too early or too late relative to reperfusion): not obtained
